{"source": "patent US20220265657A1", "about": "“ADMINISTRATION METHOD AND DOSAGE REGIMEN FOR TREATMENT OF NEURODEGENERATIVE DISEASES USING TRAMETINIB AND MARKERS” (GENUV INC., priority 2019, published 2022)", "key": {"5XFAD mice [1]": {"test_system": "5XFAD mice", "conditions": "8-month-old 5XFAD mice, 2 mg/kg donepezil, 3 months oral"}, "5XFAD mice [2]": {"test_system": "5XFAD mice", "conditions": "8-month old 5XFAD mice, 2 mg/kg donepezil"}}}
{"compound": "COc1cc2c(cc1OC)C(=O)C(CC1CCN(Cc3ccccc3)CC1)C2", "note": "(centres unmarked) [donepezil]", "values": [{"measurement": "decrease of plasma cathepsin B level compared to vehicle treated 5XFAD mice", "setting": "5XFAD mice [1]", "value": 97.13, "unit": "%"}, {"measurement": "MBP level", "setting": "5XFAD mice [2]", "value": "as low as that of the vehicle treated 5XFAD mice"}]}
